In patent US10336734B2, “Inhibitors of ACK1/TNK2 tyrosine kinase” (H. LEE MOFFITT CANCER CENTER AND RESEARCH INSTITUTE, INC., priority 2015, dated 2019):

Test system: enzalutamide-resistant C4-2B cell line
Assay: Cell viability and AR expression, enzalutamide-resistant C4-2B cells
Assay type: cell-based
Excerpt: FIG. 7A through 7F. (R)-9bMS overcome enzalutamide-resistance of CRPCs. […] Data represent mean±s.e.m. (n=3) from one of three independent experiments. […] Data represent mean±s.e.m. (n=3) from one of three independent experiments. […] Data represent mean±standard error of the mean (s.e.m.) (n=3) from one of three independent experiments.*p<0.05. […] Cell cycle analysis of prostate cell lines treated with (R)-9bMS (24 hr).
To examine relative sensitivity of CRPCs to enzalutamide and (R)-9bMS, we generated enzalutamide-resistant C4-2B cell line.

CNC(=O)c1ccc(N2C(=S)N(c3ccc(C#N)c(C(F)(F)F)c3)C(=O)C2(C)C)cc1F [enzalutamide, reference compound]
IC50: > 7.5 µM
